Laboratory results: the supplement of paper PMC4604168 (melanoma cell lines)
The list shows a part of the results. Single values are uncertain, as repeats are few or missing.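 Imaging used 1,536-well plates; nuclei positive for cleaved PARP by antibody were divided by total DNA-stained nuclei to yield the apoptosis fraction. Doses for screening kept most cells viable, and cell lines differ markedly in resting and induced cleaved-PARP levels.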

Experiments:
Test in all cases: cleaved PARP positive nuclei fraction relative to DMSO control; melanoma cells; higher = more apoptosis
Conditions in all cases: library dose: low library concentration; 72 h
CBRC034 = tested on: CBRC034 (line from a melanoma biopsy)
COLO792 = tested on: COLO792
COLO800 = tested on: COLO800
COLO829 = tested on: COLO829
G361 = tested on: G361
IPC-298 = tested on: IPC-298
IST-MEL1 = tested on: IST-MEL1
LB2518-MEL = tested on: LB2518-MEL
LOXIMVI = tested on: LOXIMVI
MZ2-MEL = tested on: MZ2-MEL
MeWo = tested on: MeWo
RPMI7951 = tested on: RPMI7951
RVH-421 = tested on: RVH-421
SkMel28 = tested on: SkMel28
SkMel30 = tested on: SkMel30
SkMel5 = tested on: SkMel5
UACC257 = tested on: UACC257
UACC62 = tested on: UACC62

SMILES | cleaved PARP positive nuclei fraction (CBRC034) | cleaved PARP positive nuclei fraction (COLO792) | cleaved PARP positive nuclei fraction (COLO800) | cleaved PARP positive nuclei fraction (COLO829) | cleaved PARP positive nuclei fraction (G361) | cleaved PARP positive nuclei fraction (IPC-298) | cleaved PARP positive nuclei fraction (IST-MEL1) | cleaved PARP positive nuclei fraction (LB2518-MEL) | cleaved PARP positive nuclei fraction (LOXIMVI) | cleaved PARP positive nuclei fraction (MZ2-MEL) | cleaved PARP positive nuclei fraction (MeWo) | cleaved PARP positive nuclei fraction (RPMI7951) | cleaved PARP positive nuclei fraction (RVH-421) | cleaved PARP positive nuclei fraction (SkMel28) | cleaved PARP positive nuclei fraction (SkMel30) | cleaved PARP positive nuclei fraction (SkMel5) | cleaved PARP positive nuclei fraction (UACC257) | cleaved PARP positive nuclei fraction (UACC62)
O=S(=O)(c1ccccc1)N(CC(F)(F)F)c1ccc(C(O)(C(F)(F)F)C(F)(F)F)cc1 + c1cc(-c2cnn3cc(-c4ccc(OCCN5CCCCC5)cc4)cnc23)ccn1 [Dorsomorphin] (first compound 1.4 µM, partner dose 0.4 µM) | 44.5% | 67.8% | 102% | 76% | 140% | 99.8% | 63.8% | 79.6% | 300% | 77.1% | 32.6% | 244% | 89.4% | 273% | 96.6% | 34.6% | 141% | 163%
O=C(Nc1ccccc1)c1cc([N+](=O)[O-])ccc1Cl + COC(=O)c1sccc1S(=O)(=O)Nc1ccc(Nc2ccccc2)cc1OC [GSK0660] (first compound 2 µM, partner dose 1 µM) | 81.2% | 98.8% | 56.7% | 150% | 40.8% | 157% | 141% | 162% | 57.2% | 111% | 113% | 158% | 28.4% | 149% | 54.7% | 116% | 92.6% | 330%
CN(C)S(=O)(=O)c1ccc2c(c1)/C(=C/c1cc3c([nH]1)CCCC3)C(=O)N2 + COc1cc(N2CCC(N3CCN(C)CC3)CC2)ccc1Nc1ncc(Cl)c(Nc2ccccc2S(=O)(=O)C(C)C)n1 [NVP-TAE684] (first compound 0.4 µM, partner dose 0.08 µM) | 43.4% | 259% | 93.3% | 113% | 150% | 89.2% | 131% | 84.4% | 118% | 116% | 101% | 87.3% | 42.4% | 122% | 248% | 75.8% | 165% | 63.8%
O=C(O)c1ccc(-c2c[nH]c3ncc(-c4ccccc4)cc23)cc1C1CCCC1 + Cc1cc([N+](=O)[O-])ccc1NS(=O)(=O)c1cc(Cl)ccc1Cl [FH535] (first compound 0.16 µM, partner dose 1 µM) | 695% | 163% | 124% | 90.7% | 168% | 41.3% | 128% | 104% | 44.2% | 96.4% | 174% | 76.6% | 92.6% | 138% | 101% | 63.4% | 128% | 131%
